The data set is described as follows: Uptake of zinc in Vitro-skin. As to conditions: 0.39% w/w Zn solutions; saliva-soaked Vitro-skin, 2 minutes at 37° C.; AA zinc analysis.

On to `[Cl-].[Cl-].[Zn+2]` [Zinc Chloride], for which the “Zn uptake to Vitro-skin” value is reported as 41.9 μg/cm^2.

In the case of `O=C([O-])CC(O)(CC(=O)[O-])C(=O)[O-].O=C([O-])CC(O)(CC(=O)[O-])C(=O)[O-].[Zn+2].[Zn+2].[Zn+2]` [Zinc Citrate (prepared), Zinc Citrate], the “Zn uptake to Vitro-skin” value was determined as 49.6 μg/cm^2.

As to `O=C([O-])CC(O)(CC(=O)[O-])C(=O)[O-].O=C([O-])CC(O)(CC(=O)[O-])C(=O)[O-].[Zn+2].[Zn+2].[Zn+2]` [Zinc Citrate (commercial), Zinc Citrate], the “Zn uptake to Vitro-skin” value is listed as 38.1 μg/cm^2.
